## Library screening results

Protein sequences, listed by entry. Tags and fused reporters are not part of them.
UniProt E9BF75, entry or part of it: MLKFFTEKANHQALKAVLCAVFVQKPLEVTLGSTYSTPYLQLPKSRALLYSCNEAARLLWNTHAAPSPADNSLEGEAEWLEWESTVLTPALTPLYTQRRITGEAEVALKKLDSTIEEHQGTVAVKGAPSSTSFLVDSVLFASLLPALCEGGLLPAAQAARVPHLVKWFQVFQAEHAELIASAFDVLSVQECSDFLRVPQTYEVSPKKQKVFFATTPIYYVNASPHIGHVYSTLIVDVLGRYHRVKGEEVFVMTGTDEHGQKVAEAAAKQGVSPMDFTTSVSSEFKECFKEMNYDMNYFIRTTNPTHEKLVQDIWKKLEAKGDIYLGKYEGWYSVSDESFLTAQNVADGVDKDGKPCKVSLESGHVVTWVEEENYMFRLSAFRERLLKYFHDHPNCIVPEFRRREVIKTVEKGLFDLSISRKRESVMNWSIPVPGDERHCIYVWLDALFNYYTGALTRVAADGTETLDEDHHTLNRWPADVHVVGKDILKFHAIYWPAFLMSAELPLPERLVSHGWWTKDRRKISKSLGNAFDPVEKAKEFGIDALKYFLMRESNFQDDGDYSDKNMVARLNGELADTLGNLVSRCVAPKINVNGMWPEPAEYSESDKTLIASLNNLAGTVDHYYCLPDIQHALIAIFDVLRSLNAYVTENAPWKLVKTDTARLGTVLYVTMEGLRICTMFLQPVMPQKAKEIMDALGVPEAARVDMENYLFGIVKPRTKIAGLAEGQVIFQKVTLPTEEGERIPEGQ

Measurements from “University of Dundee, Small-Polar-MMV Screening Library” (2021), ChEMBL document CHEMBL3988442.

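Primary screen of methionyl-tRNA synthetase; the read-out is not stated. Target: Methionyl-tRNA synthetase (putative), Leishmania donovani (UniProt E9BF75). The test concentration is not given. Values are per cent inhibition. About 68,000 compounds were tested under these conditions; 0.035% (about 24) showed 50% or more at least once.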

All values are in %.
The controls that fix the scale are not given in the record; negative values are as filed.
The compounds are a random part of those screened.

- COC(C)c1cccc(NCc2cccs2)c1 (stereo not shown) | 0.7732%
- Cc1noc(CCCC(=O)NC(C)c2nnc3n2CCCCC3)n1 (stereo not shown) | 10.68%
- CC(C)C(C(=O)N1CCCN(Cc2nccn2C)CC1)N1CCCC1 (stereo not shown) | 4.762%
- CCOC(=O)c1n[nH]cc1CN1CCOC(Cc2ccc(OC)cc2)C1 (stereo not shown) | 24.47%
- Cn1ccc(C(=O)NC2CCC23CCN(C(=O)C2CCOCC2)CC3)c1 (stereo not shown) | 18.73%
- CCc1ccc(-n2nnc(C(=O)O)c2-c2ccncc2)cc1 | 7.58%
- Cc1cccc(C2(O)CCN(Cc3ccccc3N3CCCC3)CC2)c1 | 8.511%
- Cn1cc(CN2CCC3(CC2)CCN(Cc2ccccn2)CC3)cn1 | 7.5%
- CCCN1CC2(CCN(C)CC2)CC1C(=O)NCCn1nc(C)nc1C (stereo not shown) | 4.545%
- CCCc1cnc(C)nc1N1CCC2(CCCO2)CC1 | 0.9639%
- COCC(=O)N1CCCn2c(CN3CCCC3=O)nnc2C1 | -6.748%
- Cc1cc(-c2cccc(-c3ccn(CCCO)n3)c2)nc(N(C)C)n1 | 21.32%
- Cn1cc(N2CCCC(Oc3ccc(F)cc3Cl)C2=O)cn1 (stereo not shown) | 11.96%
- COc1ccc(Nc2nc3c(C)nn(C)c3c(=O)n2C)c(OC)c1 | 13.39%
- Cc1nsc(N2CCCN(c3nc(C4CC4)ns3)CC2)n1 | 11.33%
- Cc1occc1C(=O)N1C[C@@H]2[C@@H](C1)OCC(=O)N2Cc1cccnc1 | 14.89%
- O=C(c1ccccc1)N1CCCC(Nc2ccc(F)cc2)C1 (stereo not shown) | 18.73%
- COCCOCC(=O)N1C[C@H]2CC[C@@H]1CN(C1Cc3ccccc3C1)C2 | 13.52%
- CNS(=O)(=O)CCCN1CCCC1c1cc(C)on1 (stereo not shown) | 2.347%
- CC(C)N1C(=O)C[C@H]2[C@@H]1CCN2C(=O)c1ccco1 | -0.5602%
- CS(=O)(=O)NC(=O)c1cc(Cl)c2c(c1)OCCCO2 | 11.39%
- COCC(=O)N1CCC2(CC1)NC(=O)[C@H]1CN(C(=O)N(C)C)C[C@H]12 | 10%
- O=C(Cc1c(F)cccc1Cl)N1CCC(Nc2cccnn2)CC1 | 24.59%
- CC1(C)CN(C(=O)c2occc2COc2cccc(C#N)c2)CCO1 | 12.66%
- CCCn1cc(NC(=O)c2cccc3cccnc23)ccc1=O | 11.54%
- COCc1nc(CNC2CCSCC2)no1 | 14.07%
- O=S(=O)(c1cccc(Cl)c1)N1CCCC(Cn2cncn2)C1 (stereo not shown) | 13.09%
- O=C(Cc1ccccc1)N1CCN(CC(O)c2ccc(F)cc2)CC1 (stereo not shown) | 19.55%
- NC(=O)CN1CCN(C(=O)c2cc(Cl)cc3cccnc23)CC1 | 13.72%
- Cc1noc(C2CCCN(C(=O)c3ccc(N(C)C)nc3)C2)n1 (stereo not shown) | 20.53%
- Fc1ccc(OCCNCCn2cccn2)cc1 | 11.75%
- Cc1cc(NCc2noc(C(C)C)n2)nc(-c2ccccc2)n1 | 2.105%
- CC(=O)NCc1noc2c1CN(Cc1ccsc1)CC2 | 18.84%
- CC(O)CN1CCN(C(=O)c2ccc(CN(C)C)cc2)CC1 (stereo not shown) | 8.547%
- Cc1nc(-c2ccsc2)ccc1C(=O)NCC(C)N1CCOCC1 (stereo not shown) | 18.58%
- CCc1noc(CN2CCN(C(=O)Cc3ccc(F)cc3)CC2)n1 | 4.935%
- CNCc1cn(C2CCN(CCC(C)c3ccccc3)CC2)nn1 (stereo not shown) | 6.005%
- CCc1nc(C2CCCN(C(=O)c3c[nH]c(C(C)C)n3)C2)no1 (stereo not shown) | 3.957%
- Cc1nc(C)c(C(=O)N2Cc3ccccc3OCC2CN(C)C)o1 (stereo not shown) | 13.02%
- O=C(CNC(=O)Nc1cccc(-c2nccs2)c1)NCCO | 13.4%
- O=C(CCc1ccsc1)NCC1CCN(C2CC2)C1 (stereo not shown) | 15.36%
- CN(Cc1ccc(-n2cccn2)cc1)CC1CCCN1c1cccnn1 (stereo not shown) | 26.52%
- Cc1ncn(CCNC(=O)Nc2ccccc2)c(=O)c1C | 6.497%
- CCOCCCC(=O)Nc1cc(C(N)=O)ccc1N1CCCCC1 | 10.63%
- COc1cc(OC)cc(C2CC(=O)Nc3c2nc2n3CCCC2)c1 (stereo not shown) | 11.17%
- CN1C(=O)CC(C(=O)O)C12CCN(Cc1ccc(F)c(Cl)c1)CC2 (stereo not shown) | 6.849%

5 of the entries, repeated:

compound	Inhibition
CCc1ccc(-n2nnc(C(=O)O)c2-c2ccncc2)cc1	7.58
NC(=O)CN1CCN(C(=O)c2cc(Cl)cc3cccnc23)CC1	13.72
COCC(=O)N1CCCn2c(CN3CCCC3=O)nnc2C1	-6.748
Cc1cccc(C2(O)CCN(Cc3ccccc3N3CCCC3)CC2)c1	8.511
COc1cc(OC)cc(C2CC(=O)Nc3c2nc2n3CCCC2)c1 (stereo not shown)	11.17